Values from PubChem BioAssay AID1259254 (NCATS, 2017)
Test: 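Genome-wide screen for genes that prevent DNA re-replication in cancer cells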 (primary screen). Cells: human HCT116 colorectal cancer cells. Reagents: single siRNA against human genes. Time to read-out: 3 days. Measurement: 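Imaged Hoechst DNA stain sorts each cell into a cycle phase by DNA amount; per plate, G2 fraction set to 0% for non-targeting and 100% for GMNN siRNA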. Scale: G2 robust z-score and G2 cells, % of GMNN control: higher = more G2 cells, more excess DNA replication; raw share of cells in G2: higher = larger share of cells with G2 DNA content. Hit rule: 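Active siRNAs have a G2 robust z of 5 or more median absolute deviations over the median, which in these data means about 38% or higher of GMNN control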.
Here is an unselected part of about 59,000 deposited reagents. About 1,550 of them (2.6%) count as active. 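G2 share is only a proxy for re-replication; each gene was hit by three separate siRNAs, and active genes were retested.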 Raw values are not corrected between plates. The numbers tell different reagents against one gene apart. Not stated in the record: the amount of reagent.

target gene	reagent no.	G2 robust z-score	G2 cells, % of GMNN control	raw share of cells in G2 (%)	outcome
GMFG	1	-0.772	-2.46	4.22	inactive
GMFG	2	-0.517	-0.667	3.67	inactive
GMFG	3	-1.08	-4.63	1.72	inactive
SMARCC2	1	-0.378	0.306	4.06	inactive
SMARCC2	2	-0.791	-2.6	4.81	inactive
SMARCC2	3	1.53	13.7	9.26	inactive
PLCE1	1	-0.679	-1.81	5.13	inactive
PLCE1	2	-0.763	-2.4	3.36	inactive
PLCE1	3	0.00795	3.02	4.96	inactive
SH3GL3	1	-0.476	-0.382	4.81	inactive
SH3GL3	2	-0.731	-2.18	3.36	inactive
SH3GL3	3	0.108	3.72	4.7	inactive
EMG1	1	-0.94	-3.64	4.11	inactive
EMG1	2	1.72	15.1	8.72	inactive
EMG1	3	0.275	4.9	8.41	inactive
UFD1	1	2.26	18.9	13.5	inactive
UFD1	2	0.0644	3.42	5.25	inactive
UFD1	3	2.47	20.3	10.5	inactive
CYP27C1	1	-0.987	-3.97	3.41	inactive
CYP27C1	2	0.481	6.35	6.6	inactive
CYP27C1	3	-0.932	-3.59	4.35	inactive
CCDC102B	1	-0.0161	2.85	5.63	inactive
CCDC102B	2	-0.0523	2.6	5.44	inactive
CCDC102B	3	3.15	25.1	9.25	inactive
C3orf80	1	-1.02	-4.2	3.05	inactive
C3orf80	2	-0.849	-3.01	2.72	inactive
C3orf80	3	0.712	7.98	6.68	inactive
APOC2	1	-1.32	-6.35	2.56	inactive
APOC2	2	0.0573	3.37	5.25	inactive
APOC2	3	-0.922	-3.52	3.82	inactive
MTPN	1	0.797	8.58	5.69	inactive
MTPN	2	0.0663	3.43	5.47	inactive
MTPN	3	0.212	4.46	4.52	inactive
DEFB109B	1	-0.205	1.53	4.21	inactive
DEFB109B	2	0.521	6.63	5.93	inactive
DEFB109B	3	0.54	6.77	5.42	inactive
BMPER	1	1.71	15	8.26	inactive
BMPER	2	-0.707	-2.01	2.47	inactive
BMPER	3	0.978	9.85	6.98	inactive
KCNV1	1	4.52	34.8	18	inactive
KCNV1	2	-0.121	2.12	5.5	inactive
KCNV1	3	1.05	10.3	8.41	inactive
SPDYE5	1	0.615	7.29	6.18	inactive
SPDYE5	2	0.36	5.5	4.99	inactive
SPDYE5	3	-0.605	-1.29	3.12	inactive
FNDC8	1	5	38.1	17.3	active
FNDC8	2	-0.0131	2.87	5.48	inactive
FNDC8	3	-0.839	-2.94	2.22	inactive
NIF3L1	1	0.33	5.29	6.88	inactive
NIF3L1	2	3.04	24.3	15.5	inactive
NIF3L1	3	-1.05	-4.39	1.54	inactive
SLC25A4	1	3.04	24.4	13	inactive
SLC25A4	2	3.27	26	14.3	inactive
SLC25A4	3	0.761	8.32	7.09	inactive
RTKN	1	-1.01	-4.15	3.21	inactive
RTKN	2	-0.0703	2.47	5.2	inactive
RTKN	3	-0.603	-1.28	2.89	inactive
CAMK2A	1	1.57	14	10.2	inactive
CAMK2A	2	-0.738	-2.22	4.66	inactive
CAMK2A	3	-0.442	-0.14	3.98	inactive
LRBA	1	0.898	9.28	7.14	inactive
LRBA	2	0.351	5.44	7.39	inactive
LRBA	3	0.542	6.78	5.57	inactive
CDC25A	1	-0.403	0.135	4.84	inactive
CDC25A	2	-0.581	-1.12	3.97	inactive
CDC25A	3	-0.873	-3.18	2.54	inactive
TSEN34	1	-0.0676	2.49	6.68	inactive
TSEN34	2	-0.606	-1.29	3.89	inactive
TSEN34	3	2.17	18.2	10.8	inactive

Laid out differently: entries from further up
target gene | reagent no. | G2 robust z-score | G2 cells, % of GMNN control | raw share of cells in G2 (%) | outcome
NIF3L1 | 2 | 3.04 | 24.3 | 15.5 | inactive
NIF3L1 | 3 | -1.05 | -4.39 | 1.54 | inactive
SLC25A4 | 1 | 3.04 | 24.4 | 13 | inactive
SLC25A4 | 2 | 3.27 | 26 | 14.3 | inactive
SLC25A4 | 3 | 0.761 | 8.32 | 7.09 | inactive
RTKN | 1 | -1.01 | -4.15 | 3.21 | inactive
RTKN | 2 | -0.0703 | 2.47 | 5.2 | inactive
